{"source": "PubChem BioAssay AID1224826 | NIAID – 2016", "purpose": "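Knock-downs that raise or lower Tnf reporter signal after endotoxin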 (primary screen)", "cells": "RAW264.7 G9 macrophages from mouse bearing reporters for p65 (GFP) and the Tnf promoter (mCherry)", "reagent": "siRNA pool against mouse genes, 100 nM", "timing": "16 h of LPS stimulation, after 2 days of siRNA transfection", "treatment": "bacterial lipopolysaccharide (Salmonella minnesota R595), 10 ng/ml", "detection": "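Imaged Tnf reporter mCherry in nuclei, minus background, normalised per plate to the median and expressed as robust z-scores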", "direction": "Tnf reporter robust z-score: higher = stronger Tnf promoter reporter signal after LPS", "active means": "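a well counts as active at a score of -1.3 or below (Tlr4 knock-down control median) or above 3 (raised signal); controls and wells holding fewer than 50 cells are excluded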", "calls": "active = Tnf reporter clearly lowered or raised; inactive = no clear change in Tnf reporter", "note": "The whole screen tested about 17,000 reagents; below is a random part of them. About 1,110 of all reagents (6.6%) were called active. 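Active means lowered or raised reporter signal; replicate intensities are raw and not normalised per plate.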 Not all columns of the deposit are shown. No sequences are given here."}
{"Gene": "Sfxn1 (sideroflexin 1)", "Tnf reporter robust z-score": 2.78, "fewer than 50 cells in well": "enough cells in well", "activity call": "inactive"}
{"Gene": "Wnk1 (WNK lysine deficient protein kinase 1)", "Tnf reporter robust z-score": 0.39, "fewer than 50 cells in well": "enough cells in well", "activity call": "inactive"}
{"Gene": "Gzmc (granzyme C)", "Tnf reporter robust z-score": -1.15, "fewer than 50 cells in well": "enough cells in well", "activity call": "inactive"}
{"Gene": "Rer1 (retention in endoplasmic reticulum sorting receptor 1)", "fewer than 50 cells in well": "fewer than 50 cells per well; well left out of calls", "activity call": "inactive"}
{"Gene": "Spc24", "fewer than 50 cells in well": "fewer than 50 cells per well; well left out of calls", "activity call": "inactive"}
{"Gene": "Ccdc134 (coiled-coil domain containing 134)", "fewer than 50 cells in well": "fewer than 50 cells per well; well left out of calls", "activity call": "inactive"}
{"Gene": "Il6 (interleukin 6)", "Tnf reporter robust z-score": 0.38, "fewer than 50 cells in well": "enough cells in well", "activity call": "inactive"}
{"Gene": "Itk (IL2 inducible T cell kinase)", "Tnf reporter robust z-score": -0.57, "fewer than 50 cells in well": "enough cells in well", "activity call": "inactive"}

2 entries from above, limited to “fewer than 50 cells in well”:
Rer1 (retention in endoplasmic reticulum sorting receptor 1): fewer than 50 cells per well; well left out of calls
Spc24: fewer than 50 cells per well; well left out of calls

Additional results:
{"Gene": "Rnf34 (ring finger protein 34)", "Tnf reporter robust z-score": 0.39, "fewer than 50 cells in well": "enough cells in well", "activity call": "inactive"}
{"Gene": "Acot8 (acyl-CoA thioesterase 8)", "Tnf reporter robust z-score": -1.17, "fewer than 50 cells in well": "enough cells in well", "activity call": "inactive"}
{"Gene": "Or5as1 (olfactory receptor family 5 subfamily AS member 1)", "Tnf reporter robust z-score": 1.04, "fewer than 50 cells in well": "enough cells in well", "activity call": "inactive"}
{"Gene": "9330155M09Rik (RIKEN cDNA 9330155M09 gene)", "Tnf reporter robust z-score": -0.1, "fewer than 50 cells in well": "enough cells in well", "activity call": "inactive"}
{"Gene": "Ptpro (protein tyrosine phosphatase receptor type O)", "Tnf reporter robust z-score": 0.57, "fewer than 50 cells in well": "enough cells in well", "activity call": "inactive"}
{"Gene": "Fbxo22 (F-box protein 22)", "Tnf reporter robust z-score": 0.59, "fewer than 50 cells in well": "enough cells in well", "activity call": "inactive"}
